Laboratory results from PMC12244087.
No constants are given. Whether binding was seen depends on the method and setting. In cells and extracts the contact can be indirect. Some entries that bind do so weakly or less than the wild type.

Target: T1, Cellular retinoic acid binding protein 2 (human (endogenous in NSCLC cells)) (UniProt P29373)
T1 sequence: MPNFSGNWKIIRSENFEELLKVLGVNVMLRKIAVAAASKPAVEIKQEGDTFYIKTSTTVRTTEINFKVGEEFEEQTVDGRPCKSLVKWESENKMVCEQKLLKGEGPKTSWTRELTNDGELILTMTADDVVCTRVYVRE
Experiment: co-IP; endogenous proteins; cells lysed in IP lysis buffer with protease inhibitors; lysate pre-washed with protein A/G beads at 4°C for 4 h; immunoprecipitation with anti-CRABP2 or anti-PLAAT4 antibodies coupled to protein A/G at 4°C overnight; Western blot; IgG as negative control

B1: Phospholipase A/acyltransferase 4 (protein, UniProt Q9UL19 1-164)
chain: MASPHQEPKPGDLIEIFRLGYEHWALYIGDGYVIHLAPPSEYPGAGSSSVFSVLSNSAEVKRERLEDVVGGCCYRVNNSLDHEYQPRPVEVIISSAKEMVGQKMKYSIVSRNCEHFVTQLRYGKSRCKQVEKAKVEVGVATALGILVVAGCSFAIRRYQKKATA
binding: binds
